Results are given in words; binding and its absence hold for the method and conditions named. Binding seen in cells or lysates may run through a third protein. Binding calls can cover weak binding; strength is not graded here.
Target: Flag-p300^Mut (from pCDNA3-2×Flag-p300^Mut; PMDLS motif mutated to AMAAS) (UniProt Q09472)
Test: co-IP; Flag-tagged and Myc-tagged plasmids co-transfected into HC-OA cells, 48 h, lysed, anti-Flag agarose and anti-c-Myc agarose 4°C 2 h, four washes with 1×RIPA; blots with anti-Flag and anti-Myc

Protein sequences, listed by entry. Tags and fused reporters are not part of them.
UniProt P01100: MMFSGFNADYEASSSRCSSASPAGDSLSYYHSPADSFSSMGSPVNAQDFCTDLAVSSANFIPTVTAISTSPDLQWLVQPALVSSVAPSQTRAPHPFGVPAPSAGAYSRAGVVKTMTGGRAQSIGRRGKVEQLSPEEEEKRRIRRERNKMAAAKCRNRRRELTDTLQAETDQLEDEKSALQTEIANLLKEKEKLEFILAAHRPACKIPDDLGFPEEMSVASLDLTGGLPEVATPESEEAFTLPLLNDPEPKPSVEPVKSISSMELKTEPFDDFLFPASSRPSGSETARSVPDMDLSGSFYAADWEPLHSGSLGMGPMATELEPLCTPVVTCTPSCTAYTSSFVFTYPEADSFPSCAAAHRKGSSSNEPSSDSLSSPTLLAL
UniProt P05412: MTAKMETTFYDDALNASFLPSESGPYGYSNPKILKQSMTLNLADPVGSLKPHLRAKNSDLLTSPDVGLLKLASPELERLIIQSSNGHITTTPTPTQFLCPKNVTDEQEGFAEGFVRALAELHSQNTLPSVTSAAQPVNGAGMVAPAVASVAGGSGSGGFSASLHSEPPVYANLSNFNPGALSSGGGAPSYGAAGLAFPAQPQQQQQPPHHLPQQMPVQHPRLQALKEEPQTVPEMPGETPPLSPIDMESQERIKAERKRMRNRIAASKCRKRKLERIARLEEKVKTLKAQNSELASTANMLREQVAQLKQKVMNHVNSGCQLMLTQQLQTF

| Substance | binding |
| --- | --- |
| Myc-CtBP2 (from pCDNA3-6×Myc-CtBP2) (from UniProt P56545 1-445) | no binding |
| Myc-c-FOS (AP1 subunit, from pCDNA3-6×Myc-c-FOS) (from UniProt P01100 1-380) | binds |
| Myc-c-Jun (AP1 subunit, from pCDNA3-6×Myc-c-Jun) (from UniProt P05412 1-331) | binds |

Source: publication PMC7053340
